Results of single-concentration screens

Sequences of proteins named here, by UniProt entry; tags and fusion partners are left off. Residues count along the entry.
UniProt I6X8D2, whole entry: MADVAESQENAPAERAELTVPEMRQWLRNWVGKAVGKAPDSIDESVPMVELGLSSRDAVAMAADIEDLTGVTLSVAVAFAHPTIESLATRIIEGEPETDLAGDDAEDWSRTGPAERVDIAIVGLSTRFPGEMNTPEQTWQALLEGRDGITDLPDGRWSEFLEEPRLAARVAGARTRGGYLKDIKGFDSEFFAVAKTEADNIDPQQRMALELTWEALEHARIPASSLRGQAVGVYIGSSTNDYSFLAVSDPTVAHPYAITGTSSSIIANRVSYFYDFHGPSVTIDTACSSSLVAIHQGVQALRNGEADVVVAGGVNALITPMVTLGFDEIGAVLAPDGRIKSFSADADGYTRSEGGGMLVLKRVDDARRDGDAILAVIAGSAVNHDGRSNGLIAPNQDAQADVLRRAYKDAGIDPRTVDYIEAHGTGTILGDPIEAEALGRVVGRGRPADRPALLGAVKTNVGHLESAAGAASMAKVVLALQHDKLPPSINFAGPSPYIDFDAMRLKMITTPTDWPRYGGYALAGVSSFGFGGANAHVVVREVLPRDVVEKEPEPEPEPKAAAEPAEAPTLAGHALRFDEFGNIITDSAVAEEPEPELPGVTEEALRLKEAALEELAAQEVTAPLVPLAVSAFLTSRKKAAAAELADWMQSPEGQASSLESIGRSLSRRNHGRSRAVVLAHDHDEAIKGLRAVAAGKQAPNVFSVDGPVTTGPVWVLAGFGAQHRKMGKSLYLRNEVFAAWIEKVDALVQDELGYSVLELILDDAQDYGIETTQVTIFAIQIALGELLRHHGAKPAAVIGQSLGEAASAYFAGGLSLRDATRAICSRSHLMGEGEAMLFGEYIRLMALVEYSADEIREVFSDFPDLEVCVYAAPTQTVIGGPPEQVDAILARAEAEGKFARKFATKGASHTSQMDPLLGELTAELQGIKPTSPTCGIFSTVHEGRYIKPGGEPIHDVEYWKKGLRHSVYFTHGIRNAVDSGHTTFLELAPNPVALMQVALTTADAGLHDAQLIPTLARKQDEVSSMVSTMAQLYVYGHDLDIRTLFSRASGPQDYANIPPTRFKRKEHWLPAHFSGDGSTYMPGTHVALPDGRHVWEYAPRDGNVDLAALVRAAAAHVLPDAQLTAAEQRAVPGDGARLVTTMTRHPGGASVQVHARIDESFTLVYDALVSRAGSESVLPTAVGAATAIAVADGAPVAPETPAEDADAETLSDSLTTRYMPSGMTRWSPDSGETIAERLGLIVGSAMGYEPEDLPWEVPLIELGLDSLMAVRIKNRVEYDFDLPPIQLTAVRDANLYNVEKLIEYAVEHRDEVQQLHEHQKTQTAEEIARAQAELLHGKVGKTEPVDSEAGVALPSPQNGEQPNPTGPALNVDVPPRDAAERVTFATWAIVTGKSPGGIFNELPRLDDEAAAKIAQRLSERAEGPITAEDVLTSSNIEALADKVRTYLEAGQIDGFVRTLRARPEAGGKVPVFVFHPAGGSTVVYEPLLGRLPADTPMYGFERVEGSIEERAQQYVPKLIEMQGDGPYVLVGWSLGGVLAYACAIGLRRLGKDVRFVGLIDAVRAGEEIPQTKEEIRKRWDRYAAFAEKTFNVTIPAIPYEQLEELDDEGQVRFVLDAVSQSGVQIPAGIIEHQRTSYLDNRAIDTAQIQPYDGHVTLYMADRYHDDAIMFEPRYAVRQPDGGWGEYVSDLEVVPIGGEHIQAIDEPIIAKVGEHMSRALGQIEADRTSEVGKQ
UniProt Q4DA54, 1-478: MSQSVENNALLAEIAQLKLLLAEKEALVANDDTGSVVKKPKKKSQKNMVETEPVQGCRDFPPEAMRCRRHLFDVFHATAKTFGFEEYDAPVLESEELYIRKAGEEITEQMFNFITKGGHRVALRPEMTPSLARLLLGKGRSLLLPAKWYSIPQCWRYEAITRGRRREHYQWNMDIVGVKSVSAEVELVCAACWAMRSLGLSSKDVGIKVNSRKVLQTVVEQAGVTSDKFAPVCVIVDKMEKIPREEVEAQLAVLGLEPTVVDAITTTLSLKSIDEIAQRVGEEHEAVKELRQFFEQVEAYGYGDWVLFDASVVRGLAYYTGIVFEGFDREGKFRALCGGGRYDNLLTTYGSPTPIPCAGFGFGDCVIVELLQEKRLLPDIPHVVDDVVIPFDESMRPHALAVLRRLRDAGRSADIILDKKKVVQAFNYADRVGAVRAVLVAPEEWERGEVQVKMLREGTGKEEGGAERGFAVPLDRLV
UniProt P9WPC5, whole entry: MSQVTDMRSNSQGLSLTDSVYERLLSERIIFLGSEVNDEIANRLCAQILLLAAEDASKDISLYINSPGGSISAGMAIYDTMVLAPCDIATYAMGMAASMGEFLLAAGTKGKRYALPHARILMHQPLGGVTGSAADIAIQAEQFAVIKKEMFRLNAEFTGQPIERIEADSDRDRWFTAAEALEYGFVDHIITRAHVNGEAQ
UniProt P9WPC3, whole entry partner: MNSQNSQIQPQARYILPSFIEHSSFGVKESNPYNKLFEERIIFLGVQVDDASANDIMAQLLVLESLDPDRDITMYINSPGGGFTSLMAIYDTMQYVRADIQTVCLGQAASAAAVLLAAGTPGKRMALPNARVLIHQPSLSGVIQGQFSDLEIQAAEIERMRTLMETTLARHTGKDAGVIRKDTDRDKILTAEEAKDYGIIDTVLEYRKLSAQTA
UniProt A4I591, 1-473: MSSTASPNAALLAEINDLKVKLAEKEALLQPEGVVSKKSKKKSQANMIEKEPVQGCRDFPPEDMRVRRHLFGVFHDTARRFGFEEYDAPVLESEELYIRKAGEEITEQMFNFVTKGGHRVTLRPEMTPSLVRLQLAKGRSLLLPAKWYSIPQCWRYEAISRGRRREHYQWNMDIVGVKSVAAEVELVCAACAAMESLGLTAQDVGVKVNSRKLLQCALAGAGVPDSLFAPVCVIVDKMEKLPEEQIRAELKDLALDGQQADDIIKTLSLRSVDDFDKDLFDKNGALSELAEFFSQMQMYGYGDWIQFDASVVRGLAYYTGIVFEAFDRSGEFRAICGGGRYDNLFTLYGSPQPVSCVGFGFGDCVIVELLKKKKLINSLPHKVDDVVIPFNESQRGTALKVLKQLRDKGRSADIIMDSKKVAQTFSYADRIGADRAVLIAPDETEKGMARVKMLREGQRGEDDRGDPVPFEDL

Pks13 thioesterase: 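Polyketide synthase Pks13, Mycobacterium tuberculosis (UniProt I6X8D2). Enzyme assay of the thioesterase domain of polyketide synthase 13; the read-out is not stated. Tested at 30 µM. Higher reads as stronger inhibition (inferred from which compounds were picked for retests). Of about 67,000 compounds tested this way, about 300 (0.46%) reached 50% or more in at least one test.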
TcHisRS: 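Histidine-tRNA ligase, Trypanosoma cruzi CL Brener (UniProt Q4DA54). Enzyme assay of histidyl-tRNA synthetase; the read-out is not stated. Concentration: 30 µM. Higher reads as stronger inhibition (inferred: compounds with an IC50 in retests scored well above the rest). Of about 69,000 compounds tested this way, about 31 (0.045%) reached 50% or more in at least one test.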
ClpP1P2: 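ClpP1P2, Mycobacterium tuberculosis (UniProt P9WPC5 and UniProt P9WPC3). Protease assay of ClpP1P2, read by the AMC dye that it sets free. Tested at 50 µM. Higher reads as stronger inhibition, judged from the few compounds that gave an IC50. Most other retested compounds had strongly negative values. About 69,000 compounds were tested under these conditions; 0.015% (about 10) showed 50% or more at least once.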
Leishmania in macrophages: 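Cell assay of Leishmania donovani living inside macrophages; the read-out is not stated. Compounds at 30 µM. Direction is inferred from retests: higher values go with stronger inhibition. About 69,000 compounds were tested under these conditions; 1.5% (about 1,000) showed 50% or more at least once.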
LiHisRS: 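Enzyme assay of histidyl-tRNA synthetase; the read-out is not stated. Target: Histidine-tRNA ligase, Leishmania infantum (UniProt A4I591). Compounds at 30 µM. Higher reads as stronger inhibition (inferred: compounds with an IC50 in retests scored well above the rest). The assay is labelled LdHisRS but filed under L. infantum. Size under these conditions: about 69,000 compounds, about 410 of them at 50% or above in at least one test.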

Each number is a percent effect as filed.
The controls that fix the scale are not given in the record; negative values are as filed.
Compounds were drawn at random from those tested, without regard to their results.
A dash means the value is not listed here; it may have been measured.

structure,Pks13 thioesterase,TcHisRS,ClpP1P2,Leishmania in macrophages,LiHisRS
O=C(c1c[nH]nc1-c1cccc(F)c1)N1CCNC(c2ccccc2)C1 (stereo not given),-10.8%,12%,14.52%,23.16%,16.33%
CC(C(=O)NN1CCOCC1)n1nc(C(F)(F)F)c(Cl)c1C1CC1 (stereo not given),-13.44%,-1.754%,-2.284%,7.852%,7.08%
COCc1nc(C(=O)N2CCCC2Cn2cc(C)cn2)cs1 (stereo not given),-26.44%,5.539%,-33.31%,2.428%,15.04%
CN(C)C(=O)CC1CC2(CCN(CC3CC3)CC2)c2cc(F)ccc21.O=C(O)C(F)(F)F (stereo not given),-,-,-,16.14%,-
Cn1cc(CN2CCCC23CCN(c2nc4ccccc4s2)CC3)cn1,-0.5145%,13.36%,-3.996%,26.99%,34.18%
Cc1cnc(CN2CCN(c3ccc4nncn4n3)C(C)C2)cn1 (stereo not given),3.719%,1.724%,-3.065%,38.87%,15.65%
CC(C)C[C@@H](CO)n1cc(-c2cnc(-c3ccco3)nc2)nn1,9.691%,7.2%,-19.18%,-12.99%,31.15%
CC(C)N(C)Cc1cncc2c1CCN(CC1CC1)C2,-34.78%,1.508%,10.91%,-,9.901%
Cc1cc(C)n(CC2CCCN2C(=O)c2cnn(C)c2C2CC2)n1 (stereo not given),-8.281%,-1.149%,8.553%,13.93%,9.231%
O=C(c1cncc(F)c1)N1CCC(c2ncc[nH]2)CC1,-7.646%,2.488%,-10.89%,9.216%,-1.399%
CC(C)COC(C)C(=O)N1CCCCCC1 (stereo not given),-19.38%,4.124%,-4.556%,22.56%,2.857%
CCC(C)Nc1ccc2c(c1)C1(CCOCC1)C(=O)N2c1ccccc1 (stereo not given),-53.95%,10.16%,5.135%,17.21%,24.79%
[H][C@]12CC[C@]([H])(CN(C(=O)c3ccccn3)C1)N(C(=O)CCc1cccs1)C2,-,-,-,6.339%,-
NC(=O)N1CCCC(c2nc(-c3cccnn3)no2)C1 (stereo not given),7.485%,6.579%,-1.568%,-16.52%,4.167%
CN(C(=O)CN1CCCc2cc(F)cc(F)c21)c1ccccc1,-71.21%,4.712%,2.204%,13.23%,12.07%
CCOC(=O)[C@H]1[C@@H](O)C(=O)N(C)C12CCN(C(=O)OCC)CC2,6.533%,5.78%,-0.2996%,6.858%,4.124%
Cc1ccc(CN2CCN(c3ccc(F)cn3)CC2=O)cc1C,-12.41%,7.2%,-15.84%,-38.59%,16.39%
CC1c2ncc(CN3CCN(C)CC3)n2CCN1Cc1ccsc1 (stereo not given),-15.59%,6.542%,-13.55%,-,11.11%
CSc1ccc(C(=O)N2C[C@H]3CC[C@@H]2CN(Cc2cccnc2)C3)cc1,-5.543%,3.665%,-1.644%,-,9.677%
Cc1cnc(NC(=O)N2CCCC2)s1,-19.44%,-1.695%,-4.521%,27.72%,11.32%
Cc1cc(NC(=O)NCC(C)N2CCc3ccccc32)no1 (stereo not given),-5.914%,7.985%,3.963%,27.07%,18.75%
Cc1cc(NC(=O)CN(CC2CCOC2)C2CC2)no1 (stereo not given),-15.46%,3.955%,-8.822%,-13.74%,-56.9%
Cc1ccc(-c2cc(CN3CCCC(Cn4cncn4)C3)on2)cc1 (stereo not given),-0.785%,4.943%,-2.647%,2.493%,3.125%
CCOc1ccccc1C(CC(=O)O)NC(C)=O (stereo not given),-23.02%,4.372%,4.426%,23.1%,27.4%
CCOCc1cnc2n1CCN(C(=O)c1ccoc1C)C2C (stereo not given),-47.55%,2.513%,17.9%,10.52%,-3.96%
Cc1cnccc1-c1cnn(CCNC(=O)C(C)(C)C)c1C1CC1.Cl,-,-,-,-13.4%,-
Cc1nccc(CNC(=O)NC(c2ncc(C)s2)C2CC2)n1 (stereo not given),-9.81%,3.867%,-0.426%,-4.546%,-1.036%
Cc1cc(C)n(Cc2ccc(-c3noc(C(=O)NCCO)n3)cc2)n1,-2.319%,4.95%,2.557%,34.16%,14.29%
CN1C(=O)CCN(C(=O)C2CCCCC2)c2ccccc21,-14.61%,-0.5236%,-7.631%,-23.57%,18.97%
COc1ccc(F)cc1C[S+]([O-])CC(=O)NCc1ccccc1 (stereo not given),-36.46%,5.051%,-4.172%,-6.831%,12.7%
Cc1ccc(N2CCCC(NCc3sccc3C)C2)nn1 (stereo not given),-11.86%,3.725%,14.61%,18.7%,12.28%

Data taken from ChEMBL document CHEMBL3988442, “University of Dundee, Small-Polar-MMV Screening Library” (2021).